Assay results as given in the supplement of paper PMC10849652.
Some of the results follow.

The chains behind the UniProt entries cited, without tags or fusion partners. Where a name states a change or a piece, a line headed by the entry shows the natural chain unless it says otherwise.
UniProt O15155: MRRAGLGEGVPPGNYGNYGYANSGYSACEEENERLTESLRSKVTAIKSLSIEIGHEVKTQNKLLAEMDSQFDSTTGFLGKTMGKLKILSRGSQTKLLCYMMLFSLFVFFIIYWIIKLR
UniProt O60512: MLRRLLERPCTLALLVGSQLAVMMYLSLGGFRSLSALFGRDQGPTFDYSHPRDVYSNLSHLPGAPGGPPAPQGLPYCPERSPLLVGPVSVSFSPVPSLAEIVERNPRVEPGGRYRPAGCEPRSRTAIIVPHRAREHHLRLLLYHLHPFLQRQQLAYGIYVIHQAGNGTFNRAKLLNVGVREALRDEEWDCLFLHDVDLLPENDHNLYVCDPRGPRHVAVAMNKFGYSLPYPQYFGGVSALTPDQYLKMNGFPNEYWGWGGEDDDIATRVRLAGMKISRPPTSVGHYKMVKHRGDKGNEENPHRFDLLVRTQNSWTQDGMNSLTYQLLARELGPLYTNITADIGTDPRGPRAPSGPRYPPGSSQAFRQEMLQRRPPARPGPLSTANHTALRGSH
UniProt O75531: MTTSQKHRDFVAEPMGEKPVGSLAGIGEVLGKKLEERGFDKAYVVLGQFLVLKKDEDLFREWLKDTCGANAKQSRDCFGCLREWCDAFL
UniProt Q96GS4: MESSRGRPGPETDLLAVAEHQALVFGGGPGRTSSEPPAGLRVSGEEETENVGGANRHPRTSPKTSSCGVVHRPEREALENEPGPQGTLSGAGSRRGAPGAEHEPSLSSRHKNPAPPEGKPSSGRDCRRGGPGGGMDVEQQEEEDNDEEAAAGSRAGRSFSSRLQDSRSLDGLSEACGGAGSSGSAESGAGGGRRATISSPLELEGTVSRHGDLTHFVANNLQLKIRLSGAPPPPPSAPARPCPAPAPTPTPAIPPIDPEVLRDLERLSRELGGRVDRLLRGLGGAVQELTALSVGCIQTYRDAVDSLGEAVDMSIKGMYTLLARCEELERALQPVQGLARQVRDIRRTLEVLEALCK
UniProt Q9NR09, whole entry, looked up: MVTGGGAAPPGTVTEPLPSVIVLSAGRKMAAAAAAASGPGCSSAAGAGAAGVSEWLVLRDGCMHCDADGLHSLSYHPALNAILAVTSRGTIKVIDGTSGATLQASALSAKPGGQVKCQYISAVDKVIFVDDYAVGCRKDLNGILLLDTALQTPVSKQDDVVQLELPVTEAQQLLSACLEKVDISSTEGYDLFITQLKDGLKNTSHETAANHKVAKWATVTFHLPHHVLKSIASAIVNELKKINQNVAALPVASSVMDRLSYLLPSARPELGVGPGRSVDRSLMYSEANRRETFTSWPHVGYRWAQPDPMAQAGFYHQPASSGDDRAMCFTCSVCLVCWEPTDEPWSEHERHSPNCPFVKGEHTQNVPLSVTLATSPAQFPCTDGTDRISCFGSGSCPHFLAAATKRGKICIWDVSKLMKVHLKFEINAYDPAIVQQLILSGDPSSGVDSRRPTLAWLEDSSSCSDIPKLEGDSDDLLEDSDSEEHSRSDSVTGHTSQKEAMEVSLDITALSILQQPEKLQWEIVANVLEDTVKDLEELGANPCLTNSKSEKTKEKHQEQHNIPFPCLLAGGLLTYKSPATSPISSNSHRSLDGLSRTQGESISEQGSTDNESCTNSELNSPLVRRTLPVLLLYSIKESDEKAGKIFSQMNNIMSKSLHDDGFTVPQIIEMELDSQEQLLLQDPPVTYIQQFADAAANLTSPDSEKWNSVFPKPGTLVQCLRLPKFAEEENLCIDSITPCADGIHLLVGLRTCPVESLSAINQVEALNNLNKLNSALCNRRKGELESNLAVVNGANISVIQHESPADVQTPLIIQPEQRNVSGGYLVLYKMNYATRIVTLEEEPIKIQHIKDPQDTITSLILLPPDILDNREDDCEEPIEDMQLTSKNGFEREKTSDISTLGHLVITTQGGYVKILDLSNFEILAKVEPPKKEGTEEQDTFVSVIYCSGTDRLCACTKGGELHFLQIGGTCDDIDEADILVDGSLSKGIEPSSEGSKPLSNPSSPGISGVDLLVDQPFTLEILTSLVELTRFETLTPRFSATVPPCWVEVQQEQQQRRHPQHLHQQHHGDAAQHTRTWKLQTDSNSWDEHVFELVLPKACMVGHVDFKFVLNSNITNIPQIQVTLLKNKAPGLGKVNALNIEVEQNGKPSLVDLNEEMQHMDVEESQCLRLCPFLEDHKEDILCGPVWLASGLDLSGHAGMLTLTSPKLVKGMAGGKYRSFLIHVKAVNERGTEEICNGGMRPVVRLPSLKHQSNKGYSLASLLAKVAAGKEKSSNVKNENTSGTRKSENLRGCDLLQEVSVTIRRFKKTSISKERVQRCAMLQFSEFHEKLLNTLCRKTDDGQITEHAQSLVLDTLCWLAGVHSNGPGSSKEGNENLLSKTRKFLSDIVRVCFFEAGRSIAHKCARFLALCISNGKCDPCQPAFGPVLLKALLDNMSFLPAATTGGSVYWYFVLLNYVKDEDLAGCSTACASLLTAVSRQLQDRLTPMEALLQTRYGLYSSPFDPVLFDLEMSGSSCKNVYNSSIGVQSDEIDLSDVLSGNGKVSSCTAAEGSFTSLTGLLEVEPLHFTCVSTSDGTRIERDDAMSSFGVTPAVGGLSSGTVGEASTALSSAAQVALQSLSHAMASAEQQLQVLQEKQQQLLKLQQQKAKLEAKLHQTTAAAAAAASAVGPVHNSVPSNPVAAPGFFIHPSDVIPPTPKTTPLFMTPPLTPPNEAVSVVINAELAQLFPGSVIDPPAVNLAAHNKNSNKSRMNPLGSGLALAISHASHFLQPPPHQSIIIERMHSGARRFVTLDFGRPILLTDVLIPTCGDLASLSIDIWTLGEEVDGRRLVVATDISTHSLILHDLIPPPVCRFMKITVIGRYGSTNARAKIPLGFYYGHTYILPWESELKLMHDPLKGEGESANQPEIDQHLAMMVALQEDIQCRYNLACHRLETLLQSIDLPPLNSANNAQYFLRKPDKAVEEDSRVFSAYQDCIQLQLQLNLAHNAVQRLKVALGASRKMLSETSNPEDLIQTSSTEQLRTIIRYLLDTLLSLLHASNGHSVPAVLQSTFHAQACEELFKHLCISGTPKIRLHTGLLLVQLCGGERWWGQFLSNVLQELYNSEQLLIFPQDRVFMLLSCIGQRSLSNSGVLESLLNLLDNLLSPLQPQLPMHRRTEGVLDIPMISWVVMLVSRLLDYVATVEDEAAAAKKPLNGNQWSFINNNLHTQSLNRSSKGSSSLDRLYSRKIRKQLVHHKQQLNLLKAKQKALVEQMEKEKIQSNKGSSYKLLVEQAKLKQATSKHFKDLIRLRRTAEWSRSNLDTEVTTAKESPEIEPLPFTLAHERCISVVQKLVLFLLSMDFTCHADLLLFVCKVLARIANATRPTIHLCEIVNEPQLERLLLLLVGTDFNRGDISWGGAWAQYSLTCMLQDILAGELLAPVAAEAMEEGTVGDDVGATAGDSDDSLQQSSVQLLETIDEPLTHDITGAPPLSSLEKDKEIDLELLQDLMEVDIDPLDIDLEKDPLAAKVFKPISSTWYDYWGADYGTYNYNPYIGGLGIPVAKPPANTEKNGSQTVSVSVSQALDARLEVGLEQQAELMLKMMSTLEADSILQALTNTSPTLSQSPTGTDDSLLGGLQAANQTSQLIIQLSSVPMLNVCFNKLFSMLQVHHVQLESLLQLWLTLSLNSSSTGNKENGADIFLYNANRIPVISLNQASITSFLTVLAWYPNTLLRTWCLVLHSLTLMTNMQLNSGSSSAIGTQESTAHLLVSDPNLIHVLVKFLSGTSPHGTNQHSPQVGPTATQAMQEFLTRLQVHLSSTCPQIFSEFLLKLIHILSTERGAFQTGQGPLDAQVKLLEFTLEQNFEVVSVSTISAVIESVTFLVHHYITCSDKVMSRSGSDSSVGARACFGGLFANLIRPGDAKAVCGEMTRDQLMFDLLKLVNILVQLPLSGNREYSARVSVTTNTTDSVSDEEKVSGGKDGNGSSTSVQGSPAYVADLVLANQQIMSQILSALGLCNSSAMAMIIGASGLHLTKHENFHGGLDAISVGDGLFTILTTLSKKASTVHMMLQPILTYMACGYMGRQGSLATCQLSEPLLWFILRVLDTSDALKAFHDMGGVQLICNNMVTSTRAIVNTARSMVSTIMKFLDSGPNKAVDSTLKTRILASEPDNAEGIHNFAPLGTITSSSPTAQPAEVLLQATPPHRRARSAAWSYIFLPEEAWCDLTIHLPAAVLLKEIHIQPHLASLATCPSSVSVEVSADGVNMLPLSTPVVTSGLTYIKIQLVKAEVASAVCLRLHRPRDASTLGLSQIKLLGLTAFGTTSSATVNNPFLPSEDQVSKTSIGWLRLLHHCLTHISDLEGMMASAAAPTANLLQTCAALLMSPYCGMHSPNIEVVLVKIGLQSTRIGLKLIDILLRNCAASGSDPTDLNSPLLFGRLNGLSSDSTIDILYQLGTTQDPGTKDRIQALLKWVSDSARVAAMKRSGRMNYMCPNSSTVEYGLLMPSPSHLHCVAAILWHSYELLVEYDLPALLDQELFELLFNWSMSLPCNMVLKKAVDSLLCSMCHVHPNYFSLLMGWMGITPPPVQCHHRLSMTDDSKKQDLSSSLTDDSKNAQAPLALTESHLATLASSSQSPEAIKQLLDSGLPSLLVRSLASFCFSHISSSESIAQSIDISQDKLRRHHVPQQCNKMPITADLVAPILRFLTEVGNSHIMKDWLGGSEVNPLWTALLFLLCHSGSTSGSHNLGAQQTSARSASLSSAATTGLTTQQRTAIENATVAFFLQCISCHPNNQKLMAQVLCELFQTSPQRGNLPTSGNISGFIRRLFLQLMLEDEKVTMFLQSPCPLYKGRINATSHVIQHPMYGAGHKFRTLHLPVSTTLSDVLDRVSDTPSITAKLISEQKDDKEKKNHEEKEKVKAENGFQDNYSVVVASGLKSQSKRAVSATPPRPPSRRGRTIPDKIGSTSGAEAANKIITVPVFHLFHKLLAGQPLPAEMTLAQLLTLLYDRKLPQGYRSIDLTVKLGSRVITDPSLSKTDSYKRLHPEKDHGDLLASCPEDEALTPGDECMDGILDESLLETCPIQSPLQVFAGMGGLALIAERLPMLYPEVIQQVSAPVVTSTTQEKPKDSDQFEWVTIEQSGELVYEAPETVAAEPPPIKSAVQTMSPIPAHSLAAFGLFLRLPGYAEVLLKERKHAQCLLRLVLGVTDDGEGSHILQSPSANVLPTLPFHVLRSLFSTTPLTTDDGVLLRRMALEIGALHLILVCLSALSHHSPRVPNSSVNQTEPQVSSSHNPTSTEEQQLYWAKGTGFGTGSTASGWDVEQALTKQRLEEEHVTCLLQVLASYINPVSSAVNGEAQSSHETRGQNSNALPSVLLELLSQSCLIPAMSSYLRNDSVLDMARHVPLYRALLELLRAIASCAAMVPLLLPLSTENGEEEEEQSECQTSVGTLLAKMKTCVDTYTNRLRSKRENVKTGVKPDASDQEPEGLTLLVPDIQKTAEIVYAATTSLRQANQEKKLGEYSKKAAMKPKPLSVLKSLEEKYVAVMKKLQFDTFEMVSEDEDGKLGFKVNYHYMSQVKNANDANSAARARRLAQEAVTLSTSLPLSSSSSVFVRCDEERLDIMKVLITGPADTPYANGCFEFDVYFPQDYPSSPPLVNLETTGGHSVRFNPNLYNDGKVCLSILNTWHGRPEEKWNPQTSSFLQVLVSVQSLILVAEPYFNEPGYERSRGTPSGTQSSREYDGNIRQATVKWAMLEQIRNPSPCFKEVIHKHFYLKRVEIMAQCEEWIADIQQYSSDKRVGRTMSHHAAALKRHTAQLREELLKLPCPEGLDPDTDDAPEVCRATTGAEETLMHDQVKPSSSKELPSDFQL
UniProt Q9Y276: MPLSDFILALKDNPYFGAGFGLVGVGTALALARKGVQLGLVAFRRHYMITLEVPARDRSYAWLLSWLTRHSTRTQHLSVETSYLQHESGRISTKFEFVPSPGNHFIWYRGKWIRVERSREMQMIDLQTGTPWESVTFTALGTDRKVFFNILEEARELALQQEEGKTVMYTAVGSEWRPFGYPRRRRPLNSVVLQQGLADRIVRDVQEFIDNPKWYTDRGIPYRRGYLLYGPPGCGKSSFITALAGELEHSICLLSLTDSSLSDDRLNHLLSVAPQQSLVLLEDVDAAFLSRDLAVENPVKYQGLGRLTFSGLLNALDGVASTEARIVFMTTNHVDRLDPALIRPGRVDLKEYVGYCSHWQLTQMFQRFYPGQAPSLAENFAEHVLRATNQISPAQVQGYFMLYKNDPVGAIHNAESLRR
UniProt P46736, whole entry, looked up: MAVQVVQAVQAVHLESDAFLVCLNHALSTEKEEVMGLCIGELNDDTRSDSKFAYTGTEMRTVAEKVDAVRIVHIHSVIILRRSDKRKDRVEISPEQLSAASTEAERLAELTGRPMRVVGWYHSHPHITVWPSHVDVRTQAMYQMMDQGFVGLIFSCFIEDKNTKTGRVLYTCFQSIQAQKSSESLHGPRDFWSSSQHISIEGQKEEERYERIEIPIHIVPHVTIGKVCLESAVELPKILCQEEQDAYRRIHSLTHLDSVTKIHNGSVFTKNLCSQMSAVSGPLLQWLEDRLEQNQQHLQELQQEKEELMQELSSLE

How the values were obtained:
Test in all cases: log2 fold change, soluble protein after heating vs DMSO (PISA); higher = thermal stabilisation; K562 cells, 10 uM, 30 min; active = over 0.2 and 3.5 SD of the protein, either way, in both replicates (recomputed)
[1] = compound: CS(=O)(=O)c1ccc(-c2cnc(N)c(C(=O)Nc3ccccc3)n2)cc1
In short: (§1)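 Aliquots of K562 cells (2×10^6 cells/mL) treated with 10 μM compound for 30 min were heated for 3 min over 48°C-58°C. After pooling and extraction in PBS with 0.5% NP-40 at 4°C, soluble protein from a 21,000xg, 90 min spin was quantified by TMTpro 16plex LC-MS/MS with channel sums equalised. Thermal stability is expressed against control samples, from duplicates, as a log2 fold change.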

[2] = compound: C[C@@H](Oc1cc(-c2cnn(C3CCNCC3)c2)cnc1N)c1c(Cl)ccc(F)c1Cl [crizotinib]
In short: as §1

[3] = compound: C[C@@H]1COCCN1C2=NC(=NC(=C2)C3(CC3)S(=O)(=O)C)C4=C5C=CNC5=CC=C4
In short: as §1

[4] = compound: C[C@H](C1=CC=C(C=C1)C(=O)NC2=C3C=CNC3=NC=C2)N
In short: as §1

[5] = compound: C[C@H](Nc1ncnc2nc[nH]c12)c1cc2cccc(Cl)c2c(=O)n1-c1ccccc1 [duvelisib]
In short: as §1

[6] = compound: Cc1cc(Nc2cc(CN3CCOCC3)c3nc(C)c(Cc4ccc(Cl)cc4F)n3n2)n[nH]1 [gandotinib]
In short: as §1

[7] = compound: Cc1cc(Nc2cc(N3CCN(C)CC3)nc(Sc3ccc(NC(=O)C4CC4)cc3)n2)n[nH]1 [tozasertib]
In short: as §1

[8] = compound: Cc1cc(SCc2sc(-c3ccc(C(F)(F)F)cc3)nc2C)ccc1OCC(=O)O
In short: as §1

[9] = compound: Cc1ccc(-n2nc(C(C)(C)C)cc2NC(=O)Nc2ccc(OCCN3CCOCC3)c3ccccc23)cc1 [doramapimod]
In short: as §1

[10] = compound: Cc1ccc(C(=O)N(CCCN)[C@@H](c2nc3cc(Cl)ccc3c(=O)n2Cc2ccccc2)C(C)C)cc1 [ispinesib]
In short: as §1

Measured: log2 fold change

BAIAP2L1 (UniProt Q9UHR4)
inactive: [1] 0.012 | [2] 0.023 | [3] 0.007 | [4] -0.052 | [5] 0.042 | [6] -0.013 | [7] -0.018 | [8] -0.025 | [9] -0.001 | [10] -0.025

BET1 (UniProt O15155)
inactive: [1] 0.043 | [2] -0.02 | [3] 0.132 | [4] -0.025 | [5] 0.058 | [6] -0.13 | [7] 0.019 | [8] 0.026 | [9] 0.043 | [10] -0.005

B4GALT3 (UniProt O60512)
inactive: [1] 0.031 | [2] -0.131 | [3] 0.052 | [4] -0.009 | [5] 0.142 | [6] 0.003 | [7] 0.012 | [8] 0.181 | [9] 0.06 | [10] 0.007

BLOC1S4 (UniProt Q9NUP1)
inactive: [1] -0.018 | [2] 0.028 | [3] 0.045 | [4] -0.011 | [5] 0.064 | [6] -0.103 | [7] -0.051 | [8] -0.013 | [9] 0.005 | [10] -0.071

BPIFB1 (UniProt Q8TDL5)
inactive: [1] -0.045

ATXN10 (UniProt Q9UBB4)
inactive: [1] 0.014 | [2] -0.022 | [3] 0.061 | [4] -0.063 | [5] -0.006 | [6] -0.023 | [7] -0.004 | [8] 0.005 | [9] -0.074 | [10] 0.078

BANF1 (UniProt O75531)
inactive: [1] 0.032 | [2] 0.159 | [3] 0.187 | [4] -0.097 | [5] 0.196 | [6] 0.072 | [7] 0.008 | [8] 0.059 | [9] 0.085 | [10] 0.221

BNIP2 (UniProt J3KN59)
inactive: [1] -0.052 | [2] 0.207 | [3] 0.044 | [4] -0.084 | [5] 0.052 | [6] -0.124 | [7] 0.017 | [8] 0.038 | [9] -0.027 | [10] -0.183

BCAP31 isoform 2 (UniProt P51572)
inactive: [1] -0.022 | [2] 0.087 | [3] 0.002 | [4] -0.025 | [5] -0.016 | [6] -0.041 | [7] -0.009 | [8] -0.03 | [9] -0.01 | [10] 0.002

BAHCC1 (UniProt Q9P281)
inactive: [1] 0.203 | [2] -0.004 | [3] 0.283 | [4] 0.244 | [5] 0.204 | [6] -0.158 | [7] -0.096 | [8] -0.158 | [9] 0.097 | [10] -0.19

BSDC1 (UniProt Q9NW68)
inactive: [1] -0.031 | [2] 0.064 | [3] 0.013 | [4] -0.008 | [5] 0.009 | [6] 0.008 | [7] 0.015 | [8] 0.013 | [9] -0.026 | [10] -0.044

BCKDHA (UniProt P12694)
inactive: [1] 0.039 | [2] -0.13 | [3] 0.066 | [4] 0.04 | [5] 0.022 | [6] 0.019 | [7] 0.003 | [8] 0.028 | [9] 0.031 | [10] -0.056

BORCS5 (UniProt Q969J3)
inactive: [1] -0.047 | [2] -0.172 | [3] 0.183 | [4] -0.087 | [5] 0.114 | [6] 0.143 | [7] -0.023 | [8] 0.069 | [9] 0.043 | [10] -0.063

BLMH (UniProt Q13867)
inactive: [1] -0.042 | [2] 0 | [3] 0.05 | [4] -0.034 | [5] 0.001 | [6] -0.027 | [7] 0.017 | [8] -0.087 | [9] 0 | [10] 0.03

BORCS6 (UniProt Q96GS4)
inactive: [1] -0.009 | [2] -0.146 | [3] 0.012 | [4] -0.077 | [5] 0.018 | [6] -0.035 | [7] 0.064 | [8] -0.011 | [9] 0.015 | [10] -0.094

BCAT2 (UniProt O15382)
inactive: [1] 0.006 | [2] 0.029 | [3] -0.009 | [4] 0.001 | [5] -0.016 | [6] -0.024 | [7] -0.008 | [8] -0.045 | [9] 0.009 | [10] 0.012

BROX (UniProt Q5VW32)
inactive: [1] -0.005 | [2] 0.075 | [3] 0.045 | [4] -0.021 | [5] 0.087 | [6] 0.02 | [7] 0.066 | [8] 0.087 | [9] -0.068 | [10] 0.077

AZGP1 (UniProt P25311)
inactive: [1] -0.014 | [2] -0.001 | [3] 0.119 | [4] -0.081 | [5] -0.228 | [6] -0.396 | [7] 0.109 | [8] -0.353 | [9] -0.381 | [10] 0.212

BAG6 isoform 3 (UniProt P46379)
inactive: [1] 0.016 | [2] -0.02 | [3] -0.037 | [4] 0.002 | [5] -0.011 | [6] -0.077 | [7] 0.106 | [8] 0.047 | [9] 0.016 | [10] 0.003

BIRC6 (UniProt Q9NR09)
inactive: [1] 0.035 | [2] -0.06 | [3] -0.021 | [4] 0.092 | [5] -0.019 | [6] -0.022 | [7] 0.032 | [8] 0.03 | [9] 0.063 | [10] -0.022

BAK1 (UniProt Q16611)
inactive: [1] -0.035 | [2] 0.118 | [3] 0.015 | [4] -0.03 | [5] 0.19 | [6] 0.057 | [7] -0.081 | [8] -0.077 | [9] -0.009

BCL2L2 isoform 2 (UniProt Q92843)
inactive: [1] -0.065 | [2] 0.022 | [3] -0.035 | [4] 0.036 | [5] -0.025 | [6] -0.012 | [7] 0.046 | [8] 0.049 | [9] -0.015 | [10] 0.03

BICD1 (UniProt Q96G01)
inactive: [1] -0.061 | [2] 0.076 | [3] -0.138 | [4] -0.01 | [5] 0.137 | [6] 0.105 | [7] 0.116 | [8] 0.059 | [9] 0.055 | [10] -0.213

BCS1L (UniProt Q9Y276)
inactive: [1] 0.042 | [2] 0.078 | [3] 0.044 | [4] -0.025 | [5] 0.03 | [6] 0.037 | [7] -0.031 | [8] -0.012 | [9] -0.005 | [10] 0.034

BLVRA (UniProt P53004)
inactive: [1] 0.038 | [2] -0.171 | [3] 0.102 | [4] -0.034 | [5] 0.086 | [6] -0.147 | [7] -0.079 | [8] 0.003 | [9] 0.018 | [10] -0.041

BPGM (UniProt P07738)
inactive: [1] 0.065 | [2] 0.06 | [3] 0.025 | [4] -0.047 | [5] 0.042 | [6] 0.027 | [7] 0.003 | [8] -0.054 | [9] -0.011 | [10] 0.064

Pulled one by one from above, two records:
BCL2L2 isoform 2 (UniProt Q92843)
inactive: [1] -0.065 | [2] 0.022 | [3] -0.035 | [4] 0.036 | [5] -0.025 | [6] -0.012 | [7] 0.046 | [8] 0.049 | [9] -0.015 | [10] 0.03

ATXN10 (UniProt Q9UBB4)
inactive: [1] 0.014 | [2] -0.022 | [3] 0.061 | [4] -0.063 | [5] -0.006 | [6] -0.023 | [7] -0.004 | [8] 0.005 | [9] -0.074 | [10] 0.078

Next part

BRCC3 (UniProt P46736)
inactive: [1] -0.026 | [2] 0.059 | [3] 0.116 | [4] 0.044 | [5] 0.026 | [6] 0.022 | [7] -0.022 | [8] -0.087 | [9] 0.003 | [10] 0.041

B4GALT2 isoform 3 (UniProt O60909)
inactive: [1] -0.024

B4GALT7 (UniProt Q9UBV7)
inactive: [1] -0.047 | [2] 0.041 | [3] 0.169 | [4] -0.104 | [5] 0.039 | [6] 0.397 | [7] -0.089 | [8] 0.112 | [9] -0.04 | [10] -0.027

BICD2 isoform 2 (UniProt Q8TD16)
inactive: [1] 0.117 | [2] 0.136 | [3] -0.025 | [4] 0.012 | [5] 0.082 | [6] -0.017 | [7] 0.098 | [8] 0.05 | [9] 0.006 | [10] 0.027

B3GNT8 (UniProt Q7Z7M8)
inactive: [1] -0.139

BIRC2 (UniProt Q13490)
inactive: [1] 0.037 | [2] 0.033 | [3] 0.056 | [4] -0.02 | [5] 0.046 | [6] 0.111 | [7] -0.049 | [8] 0.013 | [9] -0.021 | [10] -0.053
